Results taken from patent US20220056075A1, “METHOD FOR TREATING OPIOID USE DISORDER” (THE ADMINISTRATORS OF THE TULANE EDUCATIONAL FUND, priority 2019, published 2022).

System: male and female mice
Details: acute, equi-antinociceptive doses

CN1CC[C@]23c4c5ccc(O)c4O[C@H]2[C@@H](O)C=C[C@H]3[C@H]1C5.O=S(=O)(O)O [Morphine, Morphine sulfate, reference compound]
distance traveled (AUC): increased the AUCs of distance traveled
